# Reference: PubChem BioAssay AID504834 (National Center for Advancing Translational Sciences (NCATS), 2011)
# Out of some 320,000 compounds screened, about 22,000 (6.9%) were called active. The shares of active, inactive and inconclusive entries below differ from those in the screen. Calls follow the shape of the dose curve; as a rule, active = well fitted inhibition curve with a large enough effect; inconclusive = small, poorly fitted or top-dose-only effect, or another doubt; inactive = no such curve, though single readings can be large or run the other way. A potency beside an inconclusive call is a rough fit, not a confirmed value.
# Test: Primary qHTS for delayed death inhibitors of the malarial parasite plastid, 96 hour incubation
# Conditions: P. falciparum luciferase reporter growth; series mostly up to 28.7 µM; activity change, negative = inhibition: at the top concentration
# How it was run: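 P. falciparum expressing integrated firefly luciferase grown in erythrocytes (2% hematocrit, 0.05% parasitemia final) with compounds for 96 hours at 37 C, 5% CO2. Growth inhibition read as loss of luminescence after adding luciferase detection reagent.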
# % is scaled to controls: 0 for no effect and ±100 for the full control effect; potency is read from the fitted curve at half-maximal effect.
SMILES,Potency,"activity change, negative = inhibition"
COCCN(Cc1nc(C2(c3ccc(C)cc3)CCCC2)no1)C(C)C,active: 13.1 µM,
O=C(CCNS(=O)(=O)c1ccc(Br)cc1)N1CCCCCCC1,,inactive: 1.53%
CC(C)CC(=O)NN1CCCCC1,,inactive: 8.79%
CSc1cccc(NC(=O)CCCOc2ccc(Cl)cc2C)c1,,inactive: 22.5%
O=C(Nc1ccccc1N1CCN(c2ccccc2)CC1)C1CCCCC1,"inconclusive: 0.0657 µM [inhibitor, full curve, poor fit]",
CCCNC(=O)c1ccccc1NC(=O)COc1cccc2c1OC(C)(C)C2,"inconclusive: 11.7 µM [inhibitor, single point]",
CNS(=O)(=O)c1ccc2nc(NC(=O)c3ccc(N4C(=O)CCC4=O)cc3)sc2c1,active: 3.7 µM,
CC(C)(C)OC(=O)CNC(=O)c1nc[nH]c1C(=O)N1CCN(C(=O)OC(C)(C)C)CC1,,inactive: 137%
CC(=O)c1ccc(N2CCN(C(=O)c3ccc(Cl)c(NC4=NC5CS(=O)(=O)CC5S4)c3)CC2)cc1 (configuration not stated),"inconclusive: 18.5 µM [inhibitor, single point]",
O=C(c1ccc2c(c1)OCO2)N1CCC2(CC1)Oc1ccc(Cl)cc1C(=O)C21CC(c2ccccc2)=NO1 (configuration not stated),active: 13.1 µM,
c1ccc2c(OCCCN3CCCCCC3)cccc2c1,,inactive: -16.3%
O=C(CC1C(=O)N(c2ccc(F)cc2)C(=O)N1Cc1ccccn1)Nc1ccccc1 (configuration not stated),,inactive: -28.4%
Cc1ccc(/C=N\NC(=O)c2ccc(Cn3cc(Br)c([N+](=O)[O-])n3)o2)o1,"inconclusive: 13.1 µM [inhibitor, partial curve, poor fit]",
S=c1[nH]nc(COc2cccc3ccccc23)n1Cc1ccccc1,,inactive: -5.38%
COc1ccc(/C=C/c2onc(C)c2S(=O)(=O)N2CCC(C(=O)N3CCC(C)CC3)CC2)cc1,"inconclusive: 18.5 µM [inhibitor, single point]",
CC(=O)Nc1ccc(N=Nc2c(C)[nH]n(C(N)=S)c2=O)cc1,"inconclusive: 18.5 µM [inhibitor, single point]",
CCc1nc2sc3c(c2c(=O)n1N)CC(C)(C)OC3,,inactive: 11%
CC(=O)C1C(c2ccc(O)cc2)NC(=O)NC1(O)C(F)(F)F (configuration not stated),"inconclusive: 10.4 µM [inhibitor, single point]",
CCCCN1C(=O)/C(=C/C=C/c2ccco2)C(=O)NC1=S,,inactive: -14.7%
Cc1[nH]ccc(=O)c1Cc1c(Cl)cccc1Cl,"inconclusive: 0.0738 µM [inhibitor, full curve, poor fit]",
O=C(COC(=O)c1ccccc1Nc1ccccc1)c1ccccc1,,inactive: -24.5%
CC(=O)Nc1ccc2c(c1)CCc1ccccc1-2,,inactive: -16.8%

# In another format: 2 of the compounds above
SMILES | Potency | activity change, negative = inhibition
COc1ccc(/C=C/c2onc(C)c2S(=O)(=O)N2CCC(C(=O)N3CCC(C)CC3)CC2)cc1 | inconclusive: 18.5 µM [inhibitor, single point] | 
CC(=O)Nc1ccc(N=Nc2c(C)[nH]n(C(N)=S)c2=O)cc1 | inconclusive: 18.5 µM [inhibitor, single point] | 
